In patent US9175036B2 (BEN-GURION UNVERSITY OF THE NEGEV RESEARCH AND DEVELOPMENT …, priority 2009, dated 2015):
End groups of sequences in plain letters are not given here.

assay: general procedure: Fmoc solid-phase peptide synthesis; Rink resin 0.7 mmol/g; Wang resin 0.6 mmol/g; Fmoc-Trp(Boc)-Wang; Fmoc-D-Trp(Boc)-Wang; Fmoc-β-Ala-Wang; Fmoc-Asp(Wang r); HOBt/DIC (PEG coupling); details: whole synthesis, RP-HPLC, scale of the general procedure 0.1-0.2 mmol

Substance | crude HPLC purity | final HPLC purity
CGGGGKLWKKWAKKWLKLWKAW | 15%-20% | 73%
CGGGGYKLLKLLLPKLKGLLFKL-NH2 | 27.6% | –
CGGGRRWWRF-NH2 | 30%-50% | 95%
CXFVQWFSKFLGRIL-NH2 | 22% | –
CXKLWKKWAKKWLKLWKAW | 15%-20% | 73%
CXRRWWRF-NH2 | 27% | –
GGGGKLWKKWAKKWLKLWKAW | 20% | –
KLWKKWAKKWLKLWKAW | 30%-45% | –
